Experiment [1] has as its target T1, PIP5Kinase Skittles (SKTL), GFP-tagged (D. melanogaster) (UniProt Q9W2R3).
T1 sequence: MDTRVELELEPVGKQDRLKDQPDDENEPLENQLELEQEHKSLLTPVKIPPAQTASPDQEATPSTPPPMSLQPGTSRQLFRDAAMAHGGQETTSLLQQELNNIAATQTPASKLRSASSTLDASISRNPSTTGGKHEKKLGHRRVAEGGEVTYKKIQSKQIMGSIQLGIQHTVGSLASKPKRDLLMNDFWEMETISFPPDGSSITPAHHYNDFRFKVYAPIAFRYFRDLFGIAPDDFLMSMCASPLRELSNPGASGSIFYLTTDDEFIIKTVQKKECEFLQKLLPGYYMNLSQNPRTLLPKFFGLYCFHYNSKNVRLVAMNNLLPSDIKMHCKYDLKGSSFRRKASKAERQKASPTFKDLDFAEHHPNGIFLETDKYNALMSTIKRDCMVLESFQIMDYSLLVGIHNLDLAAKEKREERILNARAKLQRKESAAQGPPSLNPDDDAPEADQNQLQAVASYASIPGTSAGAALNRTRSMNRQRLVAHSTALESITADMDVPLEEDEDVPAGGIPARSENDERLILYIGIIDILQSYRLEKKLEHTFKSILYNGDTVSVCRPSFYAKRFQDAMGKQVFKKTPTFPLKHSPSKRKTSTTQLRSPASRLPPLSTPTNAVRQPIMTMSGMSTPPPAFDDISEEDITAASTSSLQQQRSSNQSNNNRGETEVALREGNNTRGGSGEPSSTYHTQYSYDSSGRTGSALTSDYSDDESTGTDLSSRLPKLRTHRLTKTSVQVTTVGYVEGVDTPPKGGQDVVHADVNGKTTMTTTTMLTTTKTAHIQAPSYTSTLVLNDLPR
Kind of experiment: co-IP; S2 cell extracts (freeze-thaw lysis) of cells transfected with GFP-SKTL or GFP-SNAP (control) and PAR3-HA; GFP-Trap_MA magnetic beads, 2 h at 4°C; western blot with anti-HA and anti-DLIC. (In general: Immunoblotting shows a protein as a band on a membrane.)

Experiment [2] deals with T2, DLIC-GFP (D. melanogaster) (UniProt Q9VZ20).
T2 sequence: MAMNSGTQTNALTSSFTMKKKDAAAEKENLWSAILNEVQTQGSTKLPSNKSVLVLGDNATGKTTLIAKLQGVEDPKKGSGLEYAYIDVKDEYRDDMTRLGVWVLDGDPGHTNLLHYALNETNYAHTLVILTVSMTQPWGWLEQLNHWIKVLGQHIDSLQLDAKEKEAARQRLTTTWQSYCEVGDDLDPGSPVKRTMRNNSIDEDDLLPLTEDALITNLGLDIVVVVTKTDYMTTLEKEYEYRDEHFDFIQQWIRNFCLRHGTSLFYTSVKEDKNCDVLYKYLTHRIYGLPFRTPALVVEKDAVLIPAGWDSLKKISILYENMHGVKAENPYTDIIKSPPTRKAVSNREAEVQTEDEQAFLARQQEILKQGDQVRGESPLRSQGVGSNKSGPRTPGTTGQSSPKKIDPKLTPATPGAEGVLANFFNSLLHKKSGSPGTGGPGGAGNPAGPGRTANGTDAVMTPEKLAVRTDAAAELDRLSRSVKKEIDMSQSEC
Kind of experiment: co-IP; ovarian extracts of Pubi-DLIC-GFP flies or control Pubi-PDI-GFP flies; lysis buffer 10 mM Tris/Cl pH7.5, 150 mM NaCl, 0.5 mM EDTA, 0.5% NP-40; GFP-Trap_MA magnetic beads, 2 h at 4°C; western blot with anti-PAR3.

These are yes or no findings as the source states them, for the method shown. In cells and extracts the contact can be indirect. Some entries that bind do so weakly or less than the wild type. Tags and fused reporters may be left off the sequences shown.

B1: PAR3-HA (protein, UniProt O96782 1-1464)
chain: MKVTVCFGDVRILVPCGSGELLVRDLVKEATRRYIKAAGKPDSWVTVTHLQTQSGILDPDDCVRDVADDREQILAHFDDPGPDPGVPQGGGDGASGSSSVGTGSPDIFRDPTNTEAPTCPRDLSTPHIEVTSTTSGPMAGLGVGLMVRRSSDPNLLASLKAEGSNKRWSAAAPHYAGGDSPERLFLDKAGGQLSPQWEEDDDPSHQLKEQLLHQQQPHAANGGSSSGNHQPFARSGRLSMQFLGDGNGYKWMEAAEKLQNQPPAQQTYQQGSHHAGHGQNGAYSSKSLPRESKRKEPLGQAYESIREKDGEMLLIINEYGSPLGLTALPDKEHGGGLLVQHVEPGSRAERGQLRRDDRILEINGIKLIGLTESQVQEQLRRALESSELRVRVLRGDRNRRQQRDSKVADMVEVATVSPTRKPHAAPVGTSLQVANTRKLGRKIQIMLKKGPNGLGFSVTTRDNPAGAHCPIYIKNILPRGAAIEDGRLKPGDRLLEVDGTPMTGKTQTDVVAILRGMPAGATVRIVVSRQQELAEQADQPAEKSAGVAVAPSVAPPAVPAAAAPAPPIPVQKSSSARSLFTHQQQSQLNESQHFIDAGSESAASNDSLPPSSNSWHSREELTLHIPVHDTEKAGLGVSVKGKTCSNLNASGSSASSGSNGLMKHDGDLGIFVKNVIHGGAASRDGRLRMNDQLLSVNGVSLRGQNNAEAMETLRRAMVNTPGKHPGTITLLVGRKILRSASSSDILDHSNSHSHSHSNSSGGSNSNGSGNNNNSSSNASDNSGATVIYLSPEKREQRCNGGGGGGSAGNEMNRWSNPVLDRLTGGICSSNSAQPSSQQSHQQQPHPSQQQQQQRRLPAAPVCSSAALRNESYYMATNDNWSPAQMHLMTAHGNTALLIEDDAEPMSPTLPARPHDGQHCNTSSANPSQNLAVGNQGPPINTVPGTPSTSSNFDATYSSQLSLETNSGVEHFSRDALGRRSISEKHHAALDARETGTYQRNKKLREERERERRIQLTKSAVYGGSIESLTARIASANAQFSGYKHAKTASSIEQRETQQQLAAAEAEARDQLGDLGPSLGMKKSSSLESLQTMVQELQMSDEPRGHQALRAPRGRGREDSLRAAVVSEPDASKPRKTWLLEDGDHEGGFASQRNGPFQSSLNDGKHGCKSSRAKKPSILRGIGHMFRFGKNRKDGVVPVDNYAVNISPPTSVVSTATSPQLQQQQQQQLQQHQQQQQIPTAALAALERNGKPPAYQPPPPLPAPNGVGSNGIHQNDIFNHRYQHYANYEDLHQQHQQHQISRRHQHYHSQRSARSQDVSMHSTSSGSQPGSLAQPQAQSDGVRPMSSYYEYETVQQQRVGSIKHSHSSSATSSSSSPINVPHWKAAAMNGYSPASLNSSARSRGPFVTQVTIREQSSGGIPAHLLQQHQQQQLQQQQPTYQTVQKMSGPSQYGSAAGSQPHASKV
Turning to B1, in experiment [1], the binding entry is recorded as “binds”.

B2: endogenous PAR3 of ovarian extract (protein, UniProt O96782 1-1464)
chain: B1 chain
As for B2, in experiment [2], the binding entry is recorded as “binds weakly”.

B3: dynein light intermediate chain (DLIC), endogenous in S2 cells (protein, UniProt Q9VZ20 1-493)
chain: T2 sequence
For B3, the binding entry in experiment [1] was “binds”.
